# Source: article PMC10176748
# Protein sequences, listed by entry. Tags and fused reporters are not part of them. Residues count along the entry.
# UniProt Q64339, residues 1-155: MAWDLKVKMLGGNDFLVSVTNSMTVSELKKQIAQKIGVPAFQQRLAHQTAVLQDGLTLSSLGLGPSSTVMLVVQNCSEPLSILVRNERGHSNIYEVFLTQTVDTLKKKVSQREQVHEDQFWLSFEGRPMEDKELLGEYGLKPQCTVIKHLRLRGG
# UniProt E9Q555: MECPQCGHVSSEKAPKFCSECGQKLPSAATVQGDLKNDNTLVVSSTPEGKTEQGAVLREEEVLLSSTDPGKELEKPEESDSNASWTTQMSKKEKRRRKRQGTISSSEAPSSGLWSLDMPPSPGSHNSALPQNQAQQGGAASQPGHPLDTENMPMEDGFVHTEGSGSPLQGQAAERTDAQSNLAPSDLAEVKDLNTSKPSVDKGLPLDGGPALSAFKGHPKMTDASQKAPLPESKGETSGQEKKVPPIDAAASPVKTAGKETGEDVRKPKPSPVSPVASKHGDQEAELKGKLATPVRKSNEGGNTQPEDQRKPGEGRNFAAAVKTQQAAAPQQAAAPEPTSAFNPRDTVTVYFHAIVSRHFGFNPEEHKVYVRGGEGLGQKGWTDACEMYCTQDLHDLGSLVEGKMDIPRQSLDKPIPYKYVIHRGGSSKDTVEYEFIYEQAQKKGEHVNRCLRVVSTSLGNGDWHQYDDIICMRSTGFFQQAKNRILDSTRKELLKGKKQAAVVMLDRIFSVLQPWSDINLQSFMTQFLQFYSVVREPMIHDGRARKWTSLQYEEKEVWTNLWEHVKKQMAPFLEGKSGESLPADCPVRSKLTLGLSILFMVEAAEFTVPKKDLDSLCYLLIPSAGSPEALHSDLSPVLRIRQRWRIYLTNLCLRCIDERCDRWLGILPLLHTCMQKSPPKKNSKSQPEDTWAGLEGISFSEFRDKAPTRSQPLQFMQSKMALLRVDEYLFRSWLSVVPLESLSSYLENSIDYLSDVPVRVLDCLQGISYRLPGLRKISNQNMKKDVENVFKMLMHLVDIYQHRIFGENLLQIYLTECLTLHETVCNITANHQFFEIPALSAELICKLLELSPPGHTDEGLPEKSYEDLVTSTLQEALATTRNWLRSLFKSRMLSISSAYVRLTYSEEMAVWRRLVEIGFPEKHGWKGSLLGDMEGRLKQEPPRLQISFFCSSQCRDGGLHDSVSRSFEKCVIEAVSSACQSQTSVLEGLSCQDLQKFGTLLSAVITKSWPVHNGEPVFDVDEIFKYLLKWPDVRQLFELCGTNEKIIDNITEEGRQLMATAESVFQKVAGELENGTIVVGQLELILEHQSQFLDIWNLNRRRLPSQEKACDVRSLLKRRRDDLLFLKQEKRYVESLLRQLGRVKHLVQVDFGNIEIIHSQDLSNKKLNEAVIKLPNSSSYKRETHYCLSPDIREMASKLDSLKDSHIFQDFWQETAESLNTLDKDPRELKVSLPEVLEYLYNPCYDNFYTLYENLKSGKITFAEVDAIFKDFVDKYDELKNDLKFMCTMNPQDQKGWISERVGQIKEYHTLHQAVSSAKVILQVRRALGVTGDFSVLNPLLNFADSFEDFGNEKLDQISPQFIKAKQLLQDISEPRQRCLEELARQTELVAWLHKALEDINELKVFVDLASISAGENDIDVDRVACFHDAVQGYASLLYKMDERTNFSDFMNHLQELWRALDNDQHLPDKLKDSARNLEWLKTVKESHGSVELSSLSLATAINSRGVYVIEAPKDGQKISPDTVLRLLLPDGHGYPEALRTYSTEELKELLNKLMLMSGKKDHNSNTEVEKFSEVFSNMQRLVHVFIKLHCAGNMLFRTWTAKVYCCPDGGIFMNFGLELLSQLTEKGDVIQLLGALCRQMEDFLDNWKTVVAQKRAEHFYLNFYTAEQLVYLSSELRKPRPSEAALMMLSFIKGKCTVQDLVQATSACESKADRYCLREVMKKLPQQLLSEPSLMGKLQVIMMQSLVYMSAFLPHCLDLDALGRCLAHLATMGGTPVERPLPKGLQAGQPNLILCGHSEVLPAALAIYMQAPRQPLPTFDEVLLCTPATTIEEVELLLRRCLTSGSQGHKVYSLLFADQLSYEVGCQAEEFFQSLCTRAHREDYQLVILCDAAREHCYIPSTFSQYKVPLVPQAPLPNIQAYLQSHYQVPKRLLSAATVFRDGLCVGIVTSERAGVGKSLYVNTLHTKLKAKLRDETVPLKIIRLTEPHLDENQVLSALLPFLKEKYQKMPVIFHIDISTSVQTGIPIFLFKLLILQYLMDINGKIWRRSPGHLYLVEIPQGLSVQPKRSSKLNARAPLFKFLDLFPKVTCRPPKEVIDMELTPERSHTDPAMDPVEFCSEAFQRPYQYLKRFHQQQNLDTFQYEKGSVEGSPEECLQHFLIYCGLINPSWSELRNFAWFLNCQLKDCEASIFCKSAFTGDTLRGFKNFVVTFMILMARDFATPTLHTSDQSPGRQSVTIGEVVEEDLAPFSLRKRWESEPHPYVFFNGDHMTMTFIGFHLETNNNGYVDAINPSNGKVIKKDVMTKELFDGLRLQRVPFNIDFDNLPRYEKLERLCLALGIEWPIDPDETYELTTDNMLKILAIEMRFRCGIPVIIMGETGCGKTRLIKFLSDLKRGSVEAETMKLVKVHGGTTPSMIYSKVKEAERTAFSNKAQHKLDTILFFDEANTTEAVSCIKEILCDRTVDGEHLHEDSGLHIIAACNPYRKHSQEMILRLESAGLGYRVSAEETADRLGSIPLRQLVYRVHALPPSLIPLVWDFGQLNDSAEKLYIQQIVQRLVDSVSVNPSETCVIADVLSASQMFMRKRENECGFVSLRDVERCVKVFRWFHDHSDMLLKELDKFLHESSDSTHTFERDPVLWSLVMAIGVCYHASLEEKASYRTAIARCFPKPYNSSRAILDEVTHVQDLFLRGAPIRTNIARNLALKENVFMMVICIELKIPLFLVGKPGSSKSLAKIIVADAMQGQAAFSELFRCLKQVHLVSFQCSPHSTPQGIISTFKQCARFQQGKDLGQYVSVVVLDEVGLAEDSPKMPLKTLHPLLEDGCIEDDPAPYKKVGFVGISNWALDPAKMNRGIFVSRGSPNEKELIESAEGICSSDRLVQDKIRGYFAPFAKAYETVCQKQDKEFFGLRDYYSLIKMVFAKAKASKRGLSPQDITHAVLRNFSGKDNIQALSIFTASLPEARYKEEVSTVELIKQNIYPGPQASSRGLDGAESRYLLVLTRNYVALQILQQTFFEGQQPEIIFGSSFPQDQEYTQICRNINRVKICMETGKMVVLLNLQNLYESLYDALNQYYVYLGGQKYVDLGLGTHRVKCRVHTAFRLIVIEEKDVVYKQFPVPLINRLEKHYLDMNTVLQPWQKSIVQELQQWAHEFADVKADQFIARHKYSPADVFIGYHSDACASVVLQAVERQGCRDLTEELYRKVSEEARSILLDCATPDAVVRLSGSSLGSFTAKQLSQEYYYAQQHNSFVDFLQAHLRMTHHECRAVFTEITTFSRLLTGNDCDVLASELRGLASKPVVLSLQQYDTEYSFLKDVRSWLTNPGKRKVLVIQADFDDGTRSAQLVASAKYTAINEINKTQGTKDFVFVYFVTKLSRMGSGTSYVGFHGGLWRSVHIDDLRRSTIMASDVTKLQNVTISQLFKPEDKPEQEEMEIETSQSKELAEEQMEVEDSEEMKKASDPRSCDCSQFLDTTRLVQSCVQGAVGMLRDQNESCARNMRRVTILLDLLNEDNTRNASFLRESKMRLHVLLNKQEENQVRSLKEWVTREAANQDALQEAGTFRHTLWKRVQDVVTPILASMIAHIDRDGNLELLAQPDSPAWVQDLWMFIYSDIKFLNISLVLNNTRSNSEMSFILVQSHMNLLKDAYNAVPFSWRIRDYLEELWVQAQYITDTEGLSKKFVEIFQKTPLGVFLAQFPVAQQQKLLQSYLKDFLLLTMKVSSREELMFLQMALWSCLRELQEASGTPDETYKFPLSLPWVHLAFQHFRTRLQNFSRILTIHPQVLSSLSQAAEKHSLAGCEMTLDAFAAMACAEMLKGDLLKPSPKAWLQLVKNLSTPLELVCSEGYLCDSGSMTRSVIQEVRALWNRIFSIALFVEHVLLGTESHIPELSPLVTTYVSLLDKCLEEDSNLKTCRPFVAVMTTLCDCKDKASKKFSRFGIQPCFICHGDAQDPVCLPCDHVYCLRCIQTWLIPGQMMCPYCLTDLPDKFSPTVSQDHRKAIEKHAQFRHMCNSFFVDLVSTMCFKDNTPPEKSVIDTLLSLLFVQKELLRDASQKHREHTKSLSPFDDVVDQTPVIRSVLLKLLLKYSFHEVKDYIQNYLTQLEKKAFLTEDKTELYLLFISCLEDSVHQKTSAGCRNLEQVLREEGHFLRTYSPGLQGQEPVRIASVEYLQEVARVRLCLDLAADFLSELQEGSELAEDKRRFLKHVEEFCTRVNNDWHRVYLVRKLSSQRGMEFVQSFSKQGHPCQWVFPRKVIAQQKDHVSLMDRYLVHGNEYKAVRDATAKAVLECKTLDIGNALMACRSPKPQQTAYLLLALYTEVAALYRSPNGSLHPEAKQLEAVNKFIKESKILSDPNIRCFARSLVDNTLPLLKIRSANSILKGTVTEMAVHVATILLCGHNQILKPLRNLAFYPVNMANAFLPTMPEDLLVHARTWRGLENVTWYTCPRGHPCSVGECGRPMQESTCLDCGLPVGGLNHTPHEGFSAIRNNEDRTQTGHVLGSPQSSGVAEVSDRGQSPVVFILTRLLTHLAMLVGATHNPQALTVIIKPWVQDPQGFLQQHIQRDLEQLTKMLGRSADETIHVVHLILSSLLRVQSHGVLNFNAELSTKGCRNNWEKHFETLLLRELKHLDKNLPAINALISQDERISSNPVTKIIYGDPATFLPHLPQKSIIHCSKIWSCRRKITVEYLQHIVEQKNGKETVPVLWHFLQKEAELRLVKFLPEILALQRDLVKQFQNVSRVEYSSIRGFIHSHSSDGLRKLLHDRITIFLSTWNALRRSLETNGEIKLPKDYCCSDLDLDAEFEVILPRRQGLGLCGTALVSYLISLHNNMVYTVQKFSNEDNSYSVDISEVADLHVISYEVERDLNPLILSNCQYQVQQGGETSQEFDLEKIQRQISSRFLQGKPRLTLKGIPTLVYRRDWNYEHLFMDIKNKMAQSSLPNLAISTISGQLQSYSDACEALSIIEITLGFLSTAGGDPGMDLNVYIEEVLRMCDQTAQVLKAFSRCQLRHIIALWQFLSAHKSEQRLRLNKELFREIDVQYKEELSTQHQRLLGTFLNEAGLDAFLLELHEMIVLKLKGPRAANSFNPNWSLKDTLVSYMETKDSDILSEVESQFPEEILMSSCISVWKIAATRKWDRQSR
# Target: FLAG-ISG15 (interferon-stimulated gene 15) (mouse) (UniProt Q64339)
# Experiment: affinity purification with mass spectrometry; FLAG-ISG15 immunoprecipitated from lysate of transfected mGCs with anti-FLAG magnetic beads overnight at 4 °C, washed with PBST; immunoprecipitates identified by mass spectrometry
molecule,measurement,value
ring finger protein 213 (RNF213) (from UniProt E9Q555 1-5148),binding,binds
"protease serine 23 (PRSS23) (protein, UniProt Q9D6X6 23-382) YTVPWKPTWPAYRLPVVLPQSTLNLAKADFDAKAKLEVSSSCGPQCHKGTPLPTYEEAKQYLSYETLYANGSRTETRVGIYILSNGEGRARGRDSEATGRSRRKRQIYGYDGRFSIFGKDFLLNYPFSTSVKLSTGCTGTLVAEKHVLTAAHCIHDGKTYVKGTQKLRVGFLKPKYKDGAGGDNSSSSAMPDKMKFQWIRVKRTHVPKGWIKGNANDIGMDYDYALLELKKPHKRQFMKIGVSPPAKQLPGGRIHFSGYDNDRPGNLVYRFCDVKDETYDLLYQQCDAQPGASGSGVYVRMWKRPQQKWERKIIGIFSGHQWVDMNGSPQDFNVAVRITPLKYAQICYWIKGNYLDCREG",binding,binds

# Results are given in words; binding and its absence hold for the method and conditions named. In cells and extracts the contact can be indirect. A yes stands for co-enrichment or nearness to the bait. Other partners may have been found.
